# In PubChem BioAssay AID540276 (National Center for Advancing Translational Sciences (NCATS), 2011):
# Out of some 300,000 compounds screened, about 5,400 (1.8%) were called active. Inconclusive means that the source gave no clear call. Such entries were picked first, then a sample of the others. Calls come from the whole dose curve; tested in HEK293 cells. A potency beside an inconclusive call is a rough fit, not a confirmed value.
# Experiment: qHTS for inhibitors of binding or entry into cells for Marburg Virus
# Settings: Marburg virus pseudotyped entry inhibition, cell reporter; activity change, negative = inhibition: at 37.8 µM (top of the series) unless noted
# % is set by controls: 0 for no effect and ±100 for the full control effect; potency is the fitted concentration of half-maximal effect.
Compound,Potency,"activity change, negative = inhibition"
Cc1cccc(NC(=O)C2c3ccccc3Oc3ccccc32)n1,"inconclusive: 29.1 µM [inhibitor, single point]",
O=C(NCCc1nc2ccccc2[nH]1)/C(=C/c1ccco1)NC(=O)c1ccc(Br)o1,"inconclusive: 0.316 µM [inhibitor, partial curve, poor fit]",
Cc1cc(C)nc(NNS(=O)(=O)c2c(C)cc(C(C)(C)C)cc2C)n1,inactive,
CN(C)CCCNc1cc(C(C)(C)C)nc2c(-c3ccc(Cl)cc3)cnn12,"inconclusive: 20 µM [inhibitor, single point]",
CC1CCC(NCCc2ccc3c(c2)OCO3)CC1 (stereo not given),active: 16.4 µM,
CCOc1ccc(OCC)c(NC(=O)C2COc3ccccc3O2)c1 (stereo not given),"inconclusive: 3.26 µM [activator, single point]",
CC(C)(C=O)C1=CC(=O)c2ccccc2C1=O,"inconclusive: 20.6 µM [inhibitor, single point]",
Cc1nc(SCC(=O)NCC2CCCO2)c2c3c(sc2n1)CCCC3 (stereo not given),inactive,
ClCc1ncc(-c2ccc(Cl)cc2)o1,"inconclusive: 5.62 µM [activator, full curve]",
Cc1cccc(C)c1OCC(=O)Nc1ccc(S(=O)(=O)Nc2ccccn2)cc1,"inconclusive: 1.58 µM [activator, partial curve]",
O=C(Nc1nnc(C2CC2)s1)C1CCCO1 (stereo not given),inactive,
O=C(NCCOc1ccc(Cl)cc1)C(=O)NCC1CCCO1 (stereo not given),inactive,
CCOC(=O)c1c(C)[nH]c(C(=O)CSc2nc(C)cc(C)n2)c1C,inactive,
Cc1noc(COc2ccccc2OCC(N)=O)n1,"inconclusive: 7.08 µM [activator, partial curve, poor fit]",
Cc1ccc2nc(SCC(=O)O)nc(C)c2c1,inactive,
COCc1cc(C)nc(SCC(=O)Nc2ccc3c(c2)OCO3)c1C#N,inactive,
COCCn1c(N)c(N(Cc2ccccc2)C(=O)c2ccc(-c3ccc(Cl)cc3)o2)c(=O)[nH]c1=O,inactive,
Cc1cc(-c2csc(NC(=O)c3ccc(C#N)cc3)n2)c(C)n1Cc1ccccc1,"inconclusive: 1.26 µM [inhibitor, single point]",
CCN=c1scc(C)n1/N=C/c1ccsc1,inactive,
CN(C)C(=O)c1ccc(COc2ccccc2Br)o1,inactive,
OC(CSc1ccccc1Cl)CN1CCN(c2ccc(F)cc2)CC1 (stereo not given),"inconclusive: 32.6 µM [inhibitor, partial curve, poor fit]",
Cc1cc(C)c(C)c(OCC(=O)NCC2CCCO2)c1 (stereo not given),inactive,
CCC(=O)Nc1nc(C)c(-c2csc(Nc3ccc(C(=O)O)cc3)n2)s1,inactive,
O=C(/C=C/c1ccc(F)cc1)c1ccccc1Br,inactive,
CCn1c(SCC(=O)c2ccc3c(c2)OCCO3)nnc1C(C)C,inactive,

Compound,Potency,"activity change, negative = inhibition"
CCCOC(=O)c1c(NC(=O)c2nc3ncccn3n2)sc(C(N)=O)c1C,,inconclusive: 1.09% [activator] [at 46.1 µM]
COc1cccc(NC(=O)CCC2CCN(C(=O)c3cccc(NC(C)=O)c3)CC2)c1,inactive,
C=CCNc1ncnc2ccccc12,inactive,
C[C@@H]1CN(C2CCN(S(=O)(=O)Cc3ccccc3)CC2)C[C@H](C)O1,inactive,
COc1ccccc1C1CC(c2cccs2)=NN1C(=O)CCC(=O)O (stereo not given),"inconclusive: 35.5 µM [inhibitor, single point]",
COc1ccccc1N1CCN(C(=O)c2cc(-c3ccc4c(c3)OCO4)on2)CC1,inactive,
CCCCn1c(SCC(=O)NC2CCS(=O)(=O)C2)nnc1-c1ccc(OC)cc1 (stereo not given),"inconclusive: 0.282 µM [activator, single point]",
COc1ccc(OC)c(C(=O)COC(=O)CNC(=O)c2ccccc2)c1,"inconclusive: 0.316 µM [inhibitor, full curve, poor fit]",
CCOC(=O)c1c(C)[nH]c(C(=O)N2CCCC(C(=O)c3ccccc3OC)C2)c1C (stereo not given),inactive,
O=C(Nc1ccc(N2CCOCC2)c([N+](=O)[O-])c1)c1ccco1,inactive,
Cc1nc(N2CCN(C)CC2)c2cc(-c3ccccc3)sc2n1,inactive,
Cc1ccc(NC(=O)c2cc(=O)c3ccccc3o2)c(C)c1,"inconclusive: 0.447 µM [activator, partial curve, poor fit]",
O=C(Nc1ccc(N2CCOCC2)cc1)c1cccc2ccccc12,"inconclusive: 3.16 µM [inhibitor, full curve]",
Cc1ccc(NCc2nc3ccccc3n2C)cc1,"inconclusive: 8.91 µM [inhibitor, partial curve, poor fit]",
COc1ccc(-n2nnc3c(=O)n(Cc4cc(C)ccc4C)cnc32)cc1,inactive,
CC(C)(C)NC(=S)Nc1cccc(C(F)(F)F)c1,"inconclusive: 11.2 µM [inhibitor, partial curve, poor fit]",
CCc1ccccc1N1CC(C(=O)Nc2cc(S(=O)(=O)N3CCCC3)ccc2Cl)CC1=O (stereo not given),inactive,
COc1ccc(CNc2ncnc3cc(OC)c(OC)cc23)cc1OC,"inconclusive: 0.562 µM [activator, full curve, poor fit]",
CC(NC(=O)Cc1cccs1)C(c1cccs1)N1CCN(c2ccccc2F)CC1 (stereo not given),"inconclusive: 16.4 µM [inhibitor, single point]",
Cc1cccc(CN2CCC(CNC(=O)Nc3ccc(F)c(Cl)c3)CC2)c1,"inconclusive: 3.16 µM [inhibitor, single point]",
CCCn1ccc(O)c(Cc2ccc(Cl)cc2)c1=O,"inconclusive: 35.5 µM [activator, single point]",
CN(C)/C=C/C(=O)c1ccc([N+](=O)[O-])c(CS(=O)(=O)c2ccc(Cl)cc2)c1,"inconclusive: 17.8 µM [activator, single point]",
COCc1nc2ccccc2n1CCOc1cccc(C)c1,inactive,
O=C1CC(c2ccccc2)Sc2nc3ccccc3n21 (stereo not given),"inconclusive: 35.5 µM [inhibitor, single point]",
CCOC(=O)c1c(-c2ccccc2)oc2ccc(NS(=O)(=O)c3cc(C)c(C)cc3C)cc12,"inconclusive: 35.5 µM [inhibitor, single point]",

# Rewritten tab-delimited: entries from further up
Compound	Potency	activity change, negative = inhibition
OC(CSc1ccccc1Cl)CN1CCN(c2ccc(F)cc2)CC1 (stereo not given)	inconclusive: 32.6 µM [inhibitor, partial curve, poor fit]	
Cc1cc(C)c(C)c(OCC(=O)NCC2CCCO2)c1 (stereo not given)	inactive	
CCC(=O)Nc1nc(C)c(-c2csc(Nc3ccc(C(=O)O)cc3)n2)s1	inactive	
